These are yes or no findings as the source states them, for the method shown. In cells and extracts the contact can be indirect. Some binding calls cover weakened binding; strength is not graded here. Where a sequence is shown, tags or fusion partners need not be part of it.
What was measured:
Assay in all cases: co-IP
HA-14-3-3ε^K50/215R = HA-14-3-3ε^K50/215R (UniProt P62258)
[1] = target: HA-14-3-3ε^AAA (E251-253A) (UniProt P62258)
HA-14-3-3ε^WT = HA-14-3-3ε^WT (UniProt P62258)

By UniProt entry, the sequences of proteins in these tests, tags left out. Where a name states a change or a piece, a line headed by the entry shows the natural chain unless it says otherwise.
UniProt P62258, whole entry: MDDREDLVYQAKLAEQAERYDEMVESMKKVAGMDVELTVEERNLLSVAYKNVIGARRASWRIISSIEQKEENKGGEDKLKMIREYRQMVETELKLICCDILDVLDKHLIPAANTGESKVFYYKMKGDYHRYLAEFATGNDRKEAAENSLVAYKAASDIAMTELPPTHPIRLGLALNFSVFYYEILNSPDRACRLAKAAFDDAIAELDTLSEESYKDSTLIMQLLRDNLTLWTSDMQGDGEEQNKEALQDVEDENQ

Measured: binding

B1: Flag-RIG-I (protein, UniProt O95786 1-925)
chain: MTTEQRRSLQAFQDYIRKTLDPTYILSYMAPWFREEEVQYIQAEKNNKGPMEAATLFLKFLLELQEEGWFRGFLDALDHAGYSGLYEAIESWDFKKIEKLEEYRLLLKRLQPEFKTRIIPTDIISDLSECLINQECEEILQICSTKGMMAGAEKLVECLLRSDKENWPKTLKLALEKERNKFSELWIVEKGIKDVETEDLEDKMETSDIQIFYQEDPECQNLSENSCPPSEVSDTNLYSPFKPRNYQLELALPAMKGKNTIICAPTGCGKTFVSLLICEHHLKKFPQGQKGKVVFFANQIPVYEQQKSVFSKYFERHGYRVTGISGATAENVPVEQIVENNDIIILTPQILVNNLKKGTIPSLSIFTLMIFDECHNTSKQHPYNMIMFNYLDQKLGGSSGPLPQVIGLTASVGVGDAKNTDEALDYICKLCASLDASVIATVKHNLEELEQVVYKPQKFFRKVESRISDKFKYIIAQLMRDTESLAKRICKDLENLSQIQNREFGTQKYEQWIVTVQKACMVFQMPDKDEESRICKALFLYTSHLRKYNDALIISEHARMKDALDYLKDFFSNVRAAGFDEIEQDLTQRFEEKLQELESVSRDPSNENPKLEDLCFILQEEYHLNPETITILFVKTRALVDALKNWIEGNPKLSFLKPGILTGRGKTNQNTGMTLPAQKCILDAFKASGDHNILIATSVADEGIDIAQCNLVILYEYVGNVIKMIQTRGRGRARGSKCFLLTSNAGVIEKEQINMYKEKMMNDSILRLQTWDEAVFREKILHIQTHEKFIRDSQEKPKPVPDKENKKLLCRKCKALACYTADVRVIEECHYTVLGDAFKECFVSRPHPKPKQFSSFEKRAKIFCARQNCSHDWGIHVKYKTFEIPVIKIESFVVEDIATGVQTLYSKWKDFHFEKIPFDPAEMSK
binds: HA-14-3-3ε^K50/215R | [1] | HA-14-3-3ε^WT
